1 molecule from patent publication US20240317708A1, “INHIBITORS OF TRANSGLUTAMINASES” (ZEDIRA GMBH, priority 2021, published 2024) can be followed below.

Amino acid sequences for entries named in this document (tags omitted).
UniProt P21980, whole entry: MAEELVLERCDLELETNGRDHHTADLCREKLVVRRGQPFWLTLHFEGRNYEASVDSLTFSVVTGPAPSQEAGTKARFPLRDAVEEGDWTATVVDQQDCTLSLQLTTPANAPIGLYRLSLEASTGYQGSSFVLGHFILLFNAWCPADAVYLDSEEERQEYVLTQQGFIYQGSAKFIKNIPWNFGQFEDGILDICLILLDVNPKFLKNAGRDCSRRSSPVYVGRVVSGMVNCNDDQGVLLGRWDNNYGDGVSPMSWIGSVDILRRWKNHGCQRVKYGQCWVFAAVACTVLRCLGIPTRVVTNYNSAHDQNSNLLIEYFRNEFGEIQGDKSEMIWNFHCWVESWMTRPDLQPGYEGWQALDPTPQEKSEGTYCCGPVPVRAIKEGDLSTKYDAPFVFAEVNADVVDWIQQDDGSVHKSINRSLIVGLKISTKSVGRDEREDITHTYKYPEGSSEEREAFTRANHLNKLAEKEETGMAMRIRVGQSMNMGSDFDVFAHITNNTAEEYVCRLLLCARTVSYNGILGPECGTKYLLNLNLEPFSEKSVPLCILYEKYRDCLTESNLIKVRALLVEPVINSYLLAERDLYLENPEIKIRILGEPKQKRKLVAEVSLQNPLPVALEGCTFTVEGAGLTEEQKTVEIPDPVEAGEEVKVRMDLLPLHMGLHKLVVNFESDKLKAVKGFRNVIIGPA

Each structure is given as a SMILES string. The match of structure and compound is tentative.

In data set [1] the target is recombinant human transglutaminase 2 (Homo sapiens, UniProt P21980). Nature of the data set: Transglutaminase assay (dansylcadaverine incorporation into dimethylcasein, DCC-assay). The following applies: read-out: IC50 TG2, recombinant human TG2 10 nM, 37° C. The procedure:
For the determination of potency of inhibitors against tissue transglutaminase, the incorporation of dansylcadaverine into dimethylcasein (Zedira product T036, Lorand et al., Anal Biochem, 1971, 44:221-31) was measured using recombinant human transglutaminase 2 (Zedira Product T022).
The tissue transglutaminase is diluted in buffer (50 mM Tris-HCl, 7.5 mM CaCl2, 150 mM NaCl, pH=7.4). The final concentration of TG2 in the assay is 10 nM.
A 10 mM inhibitor stock solution is prepared in DMSO, and from this a serial 1:2-fold dilution series is prepared also in DMSO. Each of the initial dilutions is subsequently diluted 1:50-fold with buffer (50 mM Tris-HCl, 7.5 mM CaCl2, 150 mM NaCl, pH=7.4) to yield the final working dilutions containing 2% (v/v) DMSO.
15 μl of inhibitor working dilution are added per well of a 96 well microtiter plate. As control, 15 μl of a 2% (v/v) DMSO solution prepared using the buffer mentioned above are added per well.
Immediately before starting the assay, 600 μl transglutaminase working solution are added to 11.4 ml assay buffer (50 mM Tris-HCl, 10 mM CaCl2, 10 mM glutathione, 2.5% glycerol, 16.7 μM dansylcadaverine, 4 μM N,N-dimethylcasein, 200 mM NaCl, pH=8.0). […]
Increase in fluorescence is measured using λex=330 nm and λem=500 nm at 37° C. for 30 min. […]
Analysis of enzymatic activity is performed by calculation of the slope of an increase in fluorescence intensity. […]

For the next data set, the system named is Caco-2 barrier. The procedure: Permeability coefficients (Papp values) were obtained from Caco-2 barrier studies predicting oral/intestinal bioavailability of the tested compounds. The assays were performed by using CacoReady™ ready-to-use kits from ReadyCell according to the manufacturers protocol.

For the molecule `Cc1nc(-c2ccccc2)sc1C(=O)N[C@@H](CC/C=C/C(=O)OCc1ccccc1)C(=O)Nc1cccn(CC(=O)NC23CC(C2)C3)c1=O`, the IC50 in data set [1] is 250 to 1500 nM. In the data set with Caco-2 barrier, the apparent permeability coefficient (Papp) lay in the range of 1 to 10 ×10⁻⁶ cm/s.

As usually defined, the IC50 is the concentration that gives 50% inhibition. As a reminder, the Papp is the rate of passage across a membrane or cell layer, normalised by area and donor concentration. The low end stands for poor permeation, the high end for ready permeation.
